Experimental data taken from patent publication US20220202743A1, “PHARMACEUTICAL COMPOSITION FOR PREVENTING OR TREATING DEGENERATIVE BRAIN DISEASE USING AUTOPHAGY ACTIVATION” (VASTHERA CO. LTD., priority 2019, published 2022).
For at least one compound, name, drawing or mass did not settle the structure.

Tests used:
[1] = system: EGFP-LC3 puncta; experiment: EGFP-LC3 puncta with Compound C or upstream autophagy inhibitors; conditions: together with Compound C, FIG. 2C
[2] = system: amyloid beta (Ab) and tau; conditions: animal model overexpressing APP; cited from earlier work
[3] = system: tau and truncated tau; experiment: Tau and truncated tau levels; assay type: cell-based; conditions: FIG. 4A

## CO[C@H]1C[C@@H]2CC[C@@H](C)[C@@](O)(O2)C(=O)C(=O)N2CCCC[C@H]2C(=O)O[C@H]([C@H](C)C[C@@H]2CC[C@@H](O)[C@H](OC)C2)CC(=O)[C@H](C)/C=C(\C)[C@@H](O)[C@@H](OC)C(=O)[C@H](C)C[C@H](C)/C=C/C=C/C=C/1C [rapamycin]
[1]
  EGFP-LC3 puncta / induced autophagy on treatment with Compound C: not significantly affected
[2]
  removal of amyloid beta and tau, cognition: remove amyloid beta (Ab) and tau (tau) in an animal model overexpressing APP and at the same time to enhance cognition
[3]
  tau and truncated tau: both tau and truncated tau decrease
